Laboratory results published in paper PMC7806630, “Molecular basis of the interaction of the human tyrosine phosphatase PTPN3 with the hepatitis B virus core protein” (Scientific Reports, 2021).

Chains of the proteins cited; added tags and fusions are not shown. Residues count along the entry.
UniProt P26045, residues 489-597: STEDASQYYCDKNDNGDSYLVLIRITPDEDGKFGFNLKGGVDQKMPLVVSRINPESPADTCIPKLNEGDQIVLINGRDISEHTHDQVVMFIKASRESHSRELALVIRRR
UniProt P26599: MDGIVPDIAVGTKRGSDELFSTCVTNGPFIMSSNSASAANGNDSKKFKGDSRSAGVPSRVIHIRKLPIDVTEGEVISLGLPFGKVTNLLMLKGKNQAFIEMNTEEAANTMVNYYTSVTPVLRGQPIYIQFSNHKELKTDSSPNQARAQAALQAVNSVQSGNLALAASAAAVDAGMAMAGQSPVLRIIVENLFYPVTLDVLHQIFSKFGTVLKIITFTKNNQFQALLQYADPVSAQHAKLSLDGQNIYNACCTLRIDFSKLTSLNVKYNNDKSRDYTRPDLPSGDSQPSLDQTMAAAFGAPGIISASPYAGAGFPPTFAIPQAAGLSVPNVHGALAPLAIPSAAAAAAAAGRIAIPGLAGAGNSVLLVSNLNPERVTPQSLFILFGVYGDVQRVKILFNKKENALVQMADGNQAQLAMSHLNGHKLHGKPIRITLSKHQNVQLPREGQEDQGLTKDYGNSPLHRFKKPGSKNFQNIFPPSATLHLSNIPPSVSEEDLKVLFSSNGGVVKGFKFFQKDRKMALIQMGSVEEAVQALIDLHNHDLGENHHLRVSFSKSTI
UniProt P55060: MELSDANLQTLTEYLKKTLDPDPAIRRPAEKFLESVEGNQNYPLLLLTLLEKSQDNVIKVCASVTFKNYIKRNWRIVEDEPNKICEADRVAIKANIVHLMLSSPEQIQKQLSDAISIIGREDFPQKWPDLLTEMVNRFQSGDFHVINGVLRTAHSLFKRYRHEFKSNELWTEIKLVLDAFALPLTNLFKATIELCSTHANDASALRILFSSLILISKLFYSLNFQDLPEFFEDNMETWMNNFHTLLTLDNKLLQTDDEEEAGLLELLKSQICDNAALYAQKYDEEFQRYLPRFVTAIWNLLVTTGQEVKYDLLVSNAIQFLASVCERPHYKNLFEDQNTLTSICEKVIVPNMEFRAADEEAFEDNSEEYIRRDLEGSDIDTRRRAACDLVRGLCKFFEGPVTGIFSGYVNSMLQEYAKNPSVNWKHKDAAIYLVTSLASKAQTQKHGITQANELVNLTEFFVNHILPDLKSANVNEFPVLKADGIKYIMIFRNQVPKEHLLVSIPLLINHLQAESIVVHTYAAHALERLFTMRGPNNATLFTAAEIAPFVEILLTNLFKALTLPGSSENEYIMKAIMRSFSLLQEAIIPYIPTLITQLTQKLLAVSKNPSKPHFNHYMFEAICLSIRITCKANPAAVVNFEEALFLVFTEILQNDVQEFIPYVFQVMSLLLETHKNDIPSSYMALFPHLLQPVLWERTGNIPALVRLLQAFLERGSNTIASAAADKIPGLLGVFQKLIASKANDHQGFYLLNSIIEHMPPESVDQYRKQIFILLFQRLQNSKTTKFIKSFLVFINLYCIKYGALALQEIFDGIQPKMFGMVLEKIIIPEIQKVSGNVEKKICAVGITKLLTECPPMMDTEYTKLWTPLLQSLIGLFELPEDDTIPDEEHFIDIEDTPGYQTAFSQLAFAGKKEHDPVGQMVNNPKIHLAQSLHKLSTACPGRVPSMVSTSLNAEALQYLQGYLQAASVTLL

B1: Vangl1 (planar cell polarity protein 1) (protein, UniProt Q8TAA9 1-524)
chain: MDTESTYSGYSYYSSHSKKSHRQGERTRERHKSPRNKDGRGSEKSVTIQPPTGEPLLGNDSTRTEEVQDDNWGETTTAITGTSEHSISQEDIARISKDMEDSVGLDCKRYLGLTVASFLGLLVFLTPIAFILLPPILWRDELEPCGTICEGLFISMAFKLLILLIGTWALFFRKRRADMPRVFVFRALLLVLIFLFVVSYWLFYGVRILDSRDRNYQGIVQYAVSLVDALLFIHYLAIVLLELRQLQPMFTLQVVRSTDGESRFYSLGHLSIQRAALVVLENYYKDFTIYNPNLLTASKFRAAKHMAGLKVYNVDGPSNNATGQSRAMIAAAARRRDSSHNELYYEEAEHERRVKKRKARLVVAVEEAFIHIQRLQAEEQQKAPGEVMDPREAAQAIFPSMARALQKYLRITRQQNYHSMESILQHLAFCITNGMTPKAFLERYLSAGPTLQYDKDRWLSTQWRLVSDEAVTNGLRDGIVFVLKCLDFSLVVNVKKIPFIILSEEFIDPKSHKFVLRLQSETSV
B2: 2′,3′-Cyclic Nucleotide 3′-Phosphodiesterase (CNP) (protein, UniProt P09543 1-421)
chain: MNRGFSRKSHTFLPKIFFRKMSSSGAKDKPELQFPFLQDEDTVATLLECKTLFILRGLPGSGKSTLARVIVDKYRDGTKMVSADAYKITPGARGAFSEEYKRLDEDLAAYCRRRDIRILVLDDTNHERERLEQLFEMADQYQYQVVLVEPKTAWRLDCAQLKEKNQWQLSADDLKKLKPGLEKDFLPLYFGWFLTKKSSETLRKAGQVFLEELGNHKAFKKELRQFVPGDEPREKMDLVTYFGKRPPGVLHCTTKFCDYGKAPGAEEYAQQDVLKKSYSKAFTLTISALFVTPKTTGARVELSEQQLQLWPSDVDKLSPTDNLPRGSRAHITLGCAADVEAVQTGLDLLEILRQEKGGSRGEEVGELSRGKLYSLGNGRWMLTLAKNMEVRAIFTGYYGKGKPVPTQGSRKGGALQSCTII
B3: hnRNP A0 (protein, UniProt Q13151 1-305)
chain: MENSQLCKLFIGGLNVQTSESGLRGHFEAFGTLTDCVVVVNPQTKRSRCFGFVTYSNVEEADAAMAASPHAVDGNTVELKRAVSREDSARPGAHAKVKKLFVGGLKGDVAEGDLIEHFSQFGTVEKAEIIADKQSGKKRGFGFVYFQNHDAADKAAVVKFHPIQGHRVEVKKAVPKEDIYSGGGGGGSRSSRGGRGGRGRGGGRDQNGLSKGGGGGYNSYGGYGGGGGGGYNAYGGGGGGSSYGGSDYGNGFGGFGSYSQHQSSYGPMKSGGGGGGGGSSWGGRSNSGPYRGGYGGGGGYGGSSF
B4: Podocalyxin (protein, UniProt O00592 23-558)
chain: SPSPSPSPSQNATQTTTDSSNKTAPTPASSVTIMATDTAQQSTVPTSKANEILASVKATTLGVSSDSPGTTTLAQQVSGPVNTTVARGGGSGNPTTTIESPKSTKSADTTTVATSTATAKPNTTSSQNGAEDTTNSGGKSSHSVTTDLTSTKAEHLTTPHPTSPLSPRQPTSTHPVATPTSSGHDHLMKISSSSSTVAIPGYTFTSPGMTTTLLETVFHHVSQAGLELLTSGDLPTLASQSAGITASSVISQRTQQTSSQMPASSTAPSSQETVQPTSPATALRTPTLPETMSSSPTAASTTHRYPKTPSPTVAHESNWAKCEDLETQTQSEKQLVLNLTGNTLCAGGASDEKLISLICRAVKATFNPAQDKCGIRLASVPGSQTVVVKEITIHTKLPAKDVYERLKDKWDELKEAGVSDMKLGDQGPPEEAEDRFSMPLIITIVCMASFLLLVAALYGCCHQRLSQRKDQQRLTEELQTVENGYHDNPTLEVMETSSEMQEKKVVSLNGELGDSWIVPLDNLTKDDLDEEEDTHL
B5: Acot8 (protein, UniProt O14734 1-319)
chain: MSSPQAPEDGQGCGDRGDPPGDLRSVLVTTVLNLEPLDEDLFRGRHYWVPAKRLFGGQIVGQALVAAAKSVSEDVHVHSLHCYFVRAGDPKLPVLYQVERTRTGSSFSVRSVKAVQHGKPIFICQASFQQAQPSPMQHQFSMPTVPPPEELLDCETLIDQYLRDPNLQKRYPLALNRIAAQEVPIEIKPVNPSPLSQLQRMEPKQMFWVRARGYIGEGDMKMHCCVAAYISDYAFLGTALLPHQWQHKVHFMVSLDHSMWFHAPFRADHWMLYECESPWAGGSRGLVHGRLWRQDGVLAVTCAQEGVIRVKPQVSESKL

Each molecule was assayed against GST-tagged PTPN3 PDZ domain (GST-PTPN3-PDZ) (human) (UniProt P26045) (assay: affinity purification with mass spectrometry; only the target purified).

binding, binds:
PTB, the polypyrimidine tract-binding protein (from UniProt P26599 1-557)
Exportin 2 (from UniProt P55060 1-971)
B1
B2
B3
B4
B5

These are yes or no findings as the source states them, for the method shown. Binding seen in cells or lysates may run through a third protein. A yes stands for co-enrichment or nearness to the bait. Other partners may have been found.
